The record followed here is article doi:10.1101/2022.10.17.512556 (bioRxiv, 2022).

By UniProt entry, the sequences of proteins in these tests, tags left out. Where a name states a change or a piece, a line headed by the entry shows the natural chain unless it says otherwise. Residues count along the entry.
UniProt Q12306, 13-98: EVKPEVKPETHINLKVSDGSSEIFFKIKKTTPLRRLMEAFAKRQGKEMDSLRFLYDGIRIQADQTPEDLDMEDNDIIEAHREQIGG
UniProt P05231, 30-212: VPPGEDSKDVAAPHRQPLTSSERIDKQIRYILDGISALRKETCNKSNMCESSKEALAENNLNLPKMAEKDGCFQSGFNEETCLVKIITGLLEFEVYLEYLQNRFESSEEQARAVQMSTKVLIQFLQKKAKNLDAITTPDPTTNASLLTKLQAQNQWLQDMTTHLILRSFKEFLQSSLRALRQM

In this test the target is T1, S210A DegP (E. coli) (UniProt P0C0V0).
T1 sequence: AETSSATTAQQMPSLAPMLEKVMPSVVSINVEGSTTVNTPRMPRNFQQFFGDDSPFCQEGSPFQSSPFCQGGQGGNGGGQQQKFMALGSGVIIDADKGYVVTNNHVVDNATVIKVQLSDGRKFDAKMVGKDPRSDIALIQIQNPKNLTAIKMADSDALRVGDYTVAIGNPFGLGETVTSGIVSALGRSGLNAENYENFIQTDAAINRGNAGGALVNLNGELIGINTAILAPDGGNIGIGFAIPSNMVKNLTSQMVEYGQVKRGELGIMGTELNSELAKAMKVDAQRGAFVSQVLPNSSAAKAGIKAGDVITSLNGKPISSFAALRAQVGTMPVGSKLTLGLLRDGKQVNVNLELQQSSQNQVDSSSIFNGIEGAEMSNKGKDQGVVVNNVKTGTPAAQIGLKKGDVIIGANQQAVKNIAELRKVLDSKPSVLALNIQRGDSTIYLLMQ
The test can be described thus: dynamic light scattering.

No constants are given. Whether binding was seen depends on the method and setting.

For the substance His-SUMO (from UniProt Q12306 13-98), the binding result is “no binding”. As for IL6 (from UniProt P05231 30-212), the binding result is reported as “no binding”.
